Values from PubChem BioAssay AID686937 (Drosophila RNAi Screening Center, 2013)
In all, the deposit lists about 23,000 reagents; below is an unselected part of those with a known target gene and a result. 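Reduced-secretion tags in replicate 1 do not always agree with the z-scores; no criterion for assigning the tags was given.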 Reagents against one gene are numbered here. A plus sign joins genes that one reagent is predicted to hit. Not stated in the record: the amount of reagent.

Screen: 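Knock-downs that reduce output of a secreted reporter enzyme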 (primary screen)
System: Drosophila S2 cells expressing secreted horseradish peroxidase
Reagents: long dsRNA against Drosophila genes
Duration: about 5.5 days (5 days dsRNA, then 12 h reporter induction)
Conditions: reporter expression induced after 5 days of dsRNA, read 12 h later; inducer not stated
Measurement: 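Chemiluminescent measurement of peroxidase in the medium 12 h after reporter induction, following 5 days of dsRNA, given as a z-score per plate; higher means more secretion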
Direction: z-score: higher = more reporter secreted into medium

target | dsRNA no. | z-score, replicate 1 | z-score, replicate 2 | z-score, replicate 3 | z-score, replicate 4 | phenotype, replicate 1
pira | 1 | 0.43 | -0.18 | – | – | –
CG42700 | 1 | -2.35 | -2.38 | – | – | reduced secretion
CG42700 | 2 | 0.3 | 0.02 | – | – | –
MESR3 | 1 | 0.27 | 0.19 | – | – | –
par-6 | 1 | 0.28 | 0.31 | – | – | –
CG9643 | 1 | -0.22 | 0.35 | – | – | –
CG10035 | 1 | 0.25 | 0.52 | – | – | –
CG1636 | 1 | -6.54 | 0.38 | 0.52 | -8 | –
spdo | 1 | 0.41 | 0.56 | – | – | –
Muc4B | 1 | -0.12 | -0.86 | – | – | –
Muc4B | 2 | -0.09 | -0.5 | – | – | –
CG17826 | 1 | 0.44 | 0.22 | – | – | –
lncRNA:iab8 | 1 | 0.48 | 0.45 | -0.01 | -0.1 | –
lncRNA:iab8 | 2 | 0.07 | 0.11 | – | – | –
CG13117 | 1 | 0.58 | 0.34 | – | – | –
sip2 | 1 | -0.68 | -0.01 | – | – | –
CG10492 | 1 | 0.64 | 0.28 | – | – | –
abo | 1 | 0.08 | 0.31 | – | – | –
CG6753 | 1 | 0.36 | 0.57 | – | – | –
CG4596 | 1 | 0.41 | 0.53 | – | – | –
verm | 1 | 0.26 | 0.26 | – | – | –

Laid out differently: results already given
pira — z-score, replicate 1 = 0.43; z-score, replicate 2 = -0.18
CG42700 #1 — z-score, replicate 1 = -2.35; z-score, replicate 2 = -2.38; phenotype, replicate 1 = reduced secretion

The list goes on:
target | dsRNA no. | z-score, replicate 1 | z-score, replicate 2 | z-score, replicate 3 | z-score, replicate 4 | phenotype, replicate 1
CG11149 | 1 | 0.19 | 0.14 | – | – | –
DptB | 1 | 0.36 | 0.54 | – | – | –
HP1D3csd | 1 | 0.24 | 0.41 | – | – | –
Prosbeta6 | 1 | -4.61 | -5.01 | – | – | reduced secretion
mRpL18 | 1 | 0 | 0.36 | – | – | –
Nup133 | 1 | -6.09 | -0.72 | – | – | reduced secretion
ric8a | 1 | -0.12 | 0.44 | – | – | –
CG13050 | 1 | 0.34 | 0.34 | – | – | –
RNASEK | 1 | 2.01 | 0.3 | – | – | –
comm2 | 1 | -0.49 | 0.05 | – | – | –
comm2 | 2 | 0.49 | 0.21 | – | – | –
mus201 + Chrac-14 | 1 | 0.7 | 0.38 | – | – | –
mus201 + Chrac-14 | 2 | 0.44 | 0.13 | – | – | –
